PubChem BioAssay AID1053208 – Peter MacCallum Cancer Centre, 2014

Purpose: 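Genes whose silencing cuts survival of bone tumour cells only with doxorubicin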 (primary screen)
Cells: mouse osteosarcoma cells, early-passage culture from an engineered mouse model of fibroblastic bone tumour
Knock-down reagent: siRNA pool against mouse genes, 40 nM
Duration: about 120 h (48 h before drug, then 72 h with drug)
Challenge: doxorubicin 100 nM for 72 h, roughly 30-40% inhibitory dose
Read-out: 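Luminescent ATP signal taken as viability with or without 100 nM doxorubicin for 72 h; mean of two wells set against non-targeting siRNA and turned into robust z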
Reading the numbers: viability z-score with doxorubicin: higher = more viable cells under doxorubicin; viability z-score without drug: higher = more viable cells with knock-down alone
Hit rule: 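a pool counts as active when its viability z-score with doxorubicin is -2 or below and its z-score without drug lies between -2 and 2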
Here is an unselected part of about 17,000 deposited reagents. Of all reagents, 788 (4.7%) got an active call. 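Calls rest on z-score classes alone; an extra cut-off of viability at most 70% of control was not applied to them.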 Not all columns of the deposit are shown. Reagent sequences are not shown.

no.	Target gene	combined z-score class	viability z-score with doxorubicin	viability z-score without drug	Call
1	Bcl2l10 (GeneID 12049)	no change with or without drug	-0.79	-0.51	inactive
2	Clec2e (GeneID 232409)	low cell count with doxorubicin only	-2.25	-0.67	active
3	Tgfb1 (GeneID 21803)	no change with or without drug	-0.67	-0.17	inactive
4	Zbtb20 (GeneID 56490)	no change with or without drug	0.79	0.67	inactive
5	Vsig4 (GeneID 278180)	no change with or without drug	0	-0.84	inactive
6	Picalm (GeneID 233489)	no change with or without drug	0.22	1.18	inactive
7	Ywhab (GeneID 54401)	no change with or without drug	-0.22	0	inactive
8	Dock1 (GeneID 330662)	no change with or without drug	-0.45	-0.84	inactive
9	Sh3rf2 (GeneID 269016)	no change with or without drug	-0.67	-1.01	inactive
10	Rab26 (GeneID 328778)	no change with or without drug	-0.79	0.51	inactive
11	Nkx2-5 (GeneID 18091)	no change with or without drug	0.67	-0.17	inactive
12	Copb1 (GeneID 70349)	low cell count with and without drug	-6.97	-6.58	inactive
13	Muc20 (GeneID 224116)	low cell count with and without drug	-2.25	-2.19	inactive
14	Zap70 (GeneID 22637)	no change with or without drug	-0.22	1.52	inactive
15	Dnajb3 (GeneID 15504)	no change with or without drug	-1.35	1.52	inactive
16	Kcnq1 (GeneID 16535)	no change with or without drug	-0.45	-0.17	inactive
17	Gart (GeneID 14450)	no change with or without drug	1.35	-0.17	inactive
18	Nicn1 (GeneID 66257)	high cell count with doxorubicin only	2.92	1.69	inactive
19	Or14c45 (GeneID 258611)	no change with or without drug	-1.8	-1.85	inactive
20	Fbxo22 (GeneID 71999)	no change with or without drug	-0.22	0.67	inactive
21	2900052N01Rik (GeneID 73040)	no change with or without drug	0.45	0.84	inactive
22	Oxld1 (GeneID 66431)	no change with or without drug	-0.56	0.84	inactive
23	Il18 (GeneID 16173)	low cell count without drug only	-0.67	-2.19	inactive
24	Tpd52 (GeneID 21985)	no change with or without drug	0	0.17	inactive
25	Eya4 (GeneID 14051)	no change with or without drug	0.9	0.51	inactive
26	Zc3h3 (GeneID 223642)	no change with or without drug	0	0.84	inactive
27	Bmp5 (GeneID 12160)	low cell count without drug only	-1.57	-2.02	inactive
28	Ift57 (GeneID 73916)	no change with or without drug	1.24	1.01	inactive
29	Rnf185 (GeneID 193670)	high cell count with and without drug	2.02	2.36	inactive
30	Bax (GeneID 12028)	no change with or without drug	0.34	0.51	inactive
31	Pax1 (GeneID 18503)	no change with or without drug	1.12	0.51	inactive
32	Snapin (GeneID 20615)	no change with or without drug	0.9	0.34	inactive
33	Pou4f1 (GeneID 18996)	no change with or without drug	0.67	0.17	inactive
34	Stpg1 (GeneID 78806)	no change with or without drug	0.22	1.35	inactive
35	Mmp8 (GeneID 17394)	no change with or without drug	1.35	1.52	inactive

3 consecutive entries from above, for reference:
no.	Target gene	combined z-score class	viability z-score with doxorubicin	viability z-score without drug	Call
33	Pou4f1 (GeneID 18996)	no change with or without drug	0.67	0.17	inactive
34	Stpg1 (GeneID 78806)	no change with or without drug	0.22	1.35	inactive
35	Mmp8 (GeneID 17394)	no change with or without drug	1.35	1.52	inactive

Next records:
no.	Target gene	combined z-score class	viability z-score with doxorubicin	viability z-score without drug	Call
36	Abcd2 (GeneID 26874)	no change with or without drug	0.9	0.34	inactive
37	Airim (GeneID 194268)	high cell count without drug only	0.67	2.02	inactive
38	Cimip2c (GeneID 75434)	high cell count without drug only	1.35	2.19	inactive
39	Styk1 (GeneID 243659)	no change with or without drug	0.45	1.52	inactive
40	Exosc2 (GeneID 227715)	no change with or without drug	1.01	1.18	inactive
41	Gtsf2 (GeneID 223927)	no change with or without drug	0	-0.84	inactive
42	Hbb-b1 (GeneID 15129)	no change with or without drug	0.9	0.84	inactive
43	Med27 (GeneID 68975)	no change with or without drug	-0.9	0.51	inactive
44	Chd1l (GeneID 68058)	no change with or without drug	-1.35	1.18	inactive
45	Snai1 (GeneID 20613)	no change with or without drug	-0.79	-0.51	inactive
46	Trem3 (GeneID 58218)	no change with or without drug	0.11	1.52	inactive
47	Jph2 (GeneID 59091)	no change with or without drug	-0.45	0.17	inactive
48	Fshb (GeneID 14308)	no change with or without drug	0.22	-0.34	inactive
49	Mrpl1 (GeneID 94061)	no change with or without drug	0.56	0.67	inactive
50	Mfap1a (GeneID 67532)	no change with or without drug	-1.35	-0.84	inactive
51	Cox7b2 (GeneID 78174)	no change with or without drug	-1.35	1.69	inactive
52	Or51af1 (GeneID 259086)	low cell count with doxorubicin only	-3.15	-1.52	active
53	Colgalt2 (GeneID 269132)	no change with or without drug	1.46	0.84	inactive
54	Crtap (GeneID 56693)	no change with or without drug	0.45	1.18	inactive
55	Tyw3 (GeneID 209584)	high cell count without drug only	1.35	2.02	inactive
56	Msrb1 (GeneID 27361)	no change with or without drug	0.45	0.84	inactive
57	Dnaja1 (GeneID 15502)	no change with or without drug	-0.45	0.84	inactive
58	Ccdc97 (GeneID 52132)	no change with or without drug	1.69	-1.18	inactive
59	Prrt3 (GeneID 210673)	no change with or without drug	-0.22	0.17	inactive
60	Mef2a (GeneID 17258)	no change with or without drug	-0.56	1.69	inactive
61	Pbld1 (GeneID 68371)	no change with or without drug	-1.91	0.17	inactive
62	Sult1d1 (GeneID 53315)	no change with or without drug	-0.45	-0.17	inactive
63	Scamp5 (GeneID 56807)	no change with or without drug	-0.45	-0.51	inactive
